Test results published in publication PMC5884558.
No constants are given. Whether binding was seen depends on the method and setting. For part of these data: A result given as binding can be weak or reduced; the word gives no strength. Sequences can lack the tags named with a protein.

The chains behind the UniProt entries cited, without tags or fusion partners. Where a name states a change or a piece, a line headed by the entry shows the natural chain unless it says otherwise.
UniProt A1YKT1: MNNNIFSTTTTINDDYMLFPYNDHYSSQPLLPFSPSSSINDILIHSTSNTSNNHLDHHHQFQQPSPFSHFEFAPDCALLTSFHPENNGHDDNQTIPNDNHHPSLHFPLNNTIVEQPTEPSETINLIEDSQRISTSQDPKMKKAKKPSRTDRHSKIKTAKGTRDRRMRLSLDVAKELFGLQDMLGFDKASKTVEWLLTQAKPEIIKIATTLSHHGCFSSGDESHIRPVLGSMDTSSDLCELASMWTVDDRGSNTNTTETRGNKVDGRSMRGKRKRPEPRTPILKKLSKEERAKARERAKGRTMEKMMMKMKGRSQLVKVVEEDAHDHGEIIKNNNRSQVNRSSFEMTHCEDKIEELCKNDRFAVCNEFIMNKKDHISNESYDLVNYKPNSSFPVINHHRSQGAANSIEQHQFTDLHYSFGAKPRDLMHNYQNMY

Columns and labels:
[1] = target: T1, N-terminal 108 amino acid residues of TIE1 fused to GAL4-DBD (Arabidopsis thaliana) (UniProt Q6IDB0); experiment: two-hybrid; bait TIE1(1-108) in pGBKT7-GW, BRC1 fragments and mutants in pGADT7-GW; yeast AH109; medium without Leu, Trp and His with 5 mM 3-AT
T1 sequence: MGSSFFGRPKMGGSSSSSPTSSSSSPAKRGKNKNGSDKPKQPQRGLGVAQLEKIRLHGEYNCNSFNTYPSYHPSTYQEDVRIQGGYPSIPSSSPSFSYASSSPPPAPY

[2] = target: T1, N-terminal 108 amino acid residues of TIE1 fused to GAL4-DBD (Arabidopsis thaliana); experiment: two-hybrid; bait DBD-TIE1N in pDEST32, preys AD-BRC1/BRC2 in pDEST22; yeast AH109; SD-Leu-Trp-His with 5 mM 3-AT
[3] = target: T1, N-terminal 108 amino acid residues of TIE1 fused to GAL4-DBD (Arabidopsis thaliana); experiment: two-hybrid; yeast two-hybrid screening of an Arabidopsis transcription factor library; bait: N-terminal 108 residues of TIE1

binding [1] | binding [2] | binding [3] | Substance
binds | – | – | BRC1 mutant protein BRC1mR fused to GAL4-AD (from UniProt A1YKT1)
no binding | – | – | BRC1 mutant protein tcp^DRV fused to GAL4-AD (from UniProt A1YKT1)
no binding | – | – | BRC1 mutant protein tcp^RDR fused to GAL4-AD (from UniProt A1YKT1)
no binding | – | – | BRC1 mutant protein tcp^WL fused to GAL4-AD (from UniProt A1YKT1)
– | no binding | no binding | BRC2 fused to GAL4-AD (Arabidopsis thaliana)
